The supplement of paper PMC12823440, “Inhibitors supercharge kinase turnover through native proteolytic circuits” (Nature, 2025)
Where a name gives a salt, the structure may show the parent alone. Some of the results follow. Hit calls seldom repeat between salt and free forms of one compound.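 Kinases were expressed as nanoluciferase fusions in K562 cells and luminescence was read every 4 h between 2 and 18 h as percent of control, DMSO set to 100% and a positive control to 0%. A time point counts as decreased when the signal drops significantly (2 sigma). The hit call is the authors' own, does not follow from the count of time points alone, and its rule is not shown.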

The chains behind the UniProt entries cited, without tags or fusion partners. Where a name states a change or a piece, a line headed by the entry shows the natural chain unless it says otherwise.
UniProt P07949, whole entry, looked up: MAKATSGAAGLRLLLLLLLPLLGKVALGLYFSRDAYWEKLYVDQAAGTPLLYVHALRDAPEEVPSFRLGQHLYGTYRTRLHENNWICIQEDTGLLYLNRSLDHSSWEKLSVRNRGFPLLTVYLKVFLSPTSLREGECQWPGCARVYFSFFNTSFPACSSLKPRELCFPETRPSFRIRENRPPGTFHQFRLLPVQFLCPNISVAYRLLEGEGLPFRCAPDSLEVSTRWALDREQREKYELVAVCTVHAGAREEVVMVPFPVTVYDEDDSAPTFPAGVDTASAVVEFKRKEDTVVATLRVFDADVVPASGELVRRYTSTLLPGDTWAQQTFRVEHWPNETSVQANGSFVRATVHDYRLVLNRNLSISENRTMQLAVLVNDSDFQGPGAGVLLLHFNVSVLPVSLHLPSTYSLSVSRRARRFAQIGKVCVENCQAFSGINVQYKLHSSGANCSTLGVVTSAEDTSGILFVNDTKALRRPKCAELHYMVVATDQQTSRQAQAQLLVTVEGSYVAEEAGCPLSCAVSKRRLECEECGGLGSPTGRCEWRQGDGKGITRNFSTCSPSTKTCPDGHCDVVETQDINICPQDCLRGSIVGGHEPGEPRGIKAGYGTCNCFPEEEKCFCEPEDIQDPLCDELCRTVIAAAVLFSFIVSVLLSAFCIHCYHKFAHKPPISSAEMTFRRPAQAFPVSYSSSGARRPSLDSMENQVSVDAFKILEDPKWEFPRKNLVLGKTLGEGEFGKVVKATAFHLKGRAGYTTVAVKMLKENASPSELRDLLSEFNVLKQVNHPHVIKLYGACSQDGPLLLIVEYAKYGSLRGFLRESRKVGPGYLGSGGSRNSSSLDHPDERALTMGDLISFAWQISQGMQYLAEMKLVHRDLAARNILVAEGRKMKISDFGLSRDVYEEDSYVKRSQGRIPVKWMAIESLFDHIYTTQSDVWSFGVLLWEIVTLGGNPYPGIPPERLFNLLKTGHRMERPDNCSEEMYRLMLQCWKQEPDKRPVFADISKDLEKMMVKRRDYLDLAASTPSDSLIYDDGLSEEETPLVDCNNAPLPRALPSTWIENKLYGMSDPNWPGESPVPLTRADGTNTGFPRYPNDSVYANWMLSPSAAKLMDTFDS
UniProt P07949, whole entry M918T, looked up: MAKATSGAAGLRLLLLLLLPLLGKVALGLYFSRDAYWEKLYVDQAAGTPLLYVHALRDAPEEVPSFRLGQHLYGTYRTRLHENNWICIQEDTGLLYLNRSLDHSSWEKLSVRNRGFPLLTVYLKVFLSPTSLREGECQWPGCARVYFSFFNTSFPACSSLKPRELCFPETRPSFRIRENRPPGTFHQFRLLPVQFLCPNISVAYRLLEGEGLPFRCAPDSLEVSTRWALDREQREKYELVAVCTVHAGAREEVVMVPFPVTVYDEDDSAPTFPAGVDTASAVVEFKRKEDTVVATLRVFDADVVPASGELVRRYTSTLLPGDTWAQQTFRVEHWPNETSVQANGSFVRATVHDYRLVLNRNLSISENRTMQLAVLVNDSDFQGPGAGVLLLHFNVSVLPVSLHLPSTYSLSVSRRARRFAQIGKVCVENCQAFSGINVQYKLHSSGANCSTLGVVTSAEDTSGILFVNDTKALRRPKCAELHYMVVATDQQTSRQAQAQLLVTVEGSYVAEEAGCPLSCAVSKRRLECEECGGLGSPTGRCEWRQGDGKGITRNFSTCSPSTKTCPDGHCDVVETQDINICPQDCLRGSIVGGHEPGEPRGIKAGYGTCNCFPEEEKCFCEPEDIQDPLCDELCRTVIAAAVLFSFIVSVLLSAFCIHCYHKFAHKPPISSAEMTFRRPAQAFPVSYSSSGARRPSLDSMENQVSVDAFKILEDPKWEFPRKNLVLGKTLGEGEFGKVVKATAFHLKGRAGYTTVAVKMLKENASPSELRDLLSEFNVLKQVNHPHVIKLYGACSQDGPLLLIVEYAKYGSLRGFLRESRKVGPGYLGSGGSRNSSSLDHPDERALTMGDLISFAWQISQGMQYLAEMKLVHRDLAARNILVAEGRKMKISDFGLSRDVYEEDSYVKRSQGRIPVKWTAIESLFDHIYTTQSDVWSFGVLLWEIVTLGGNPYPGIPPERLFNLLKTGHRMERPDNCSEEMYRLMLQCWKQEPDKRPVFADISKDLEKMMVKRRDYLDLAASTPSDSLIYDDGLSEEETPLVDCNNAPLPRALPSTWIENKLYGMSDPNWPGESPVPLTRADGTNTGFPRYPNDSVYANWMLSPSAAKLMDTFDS
UniProt Q13546: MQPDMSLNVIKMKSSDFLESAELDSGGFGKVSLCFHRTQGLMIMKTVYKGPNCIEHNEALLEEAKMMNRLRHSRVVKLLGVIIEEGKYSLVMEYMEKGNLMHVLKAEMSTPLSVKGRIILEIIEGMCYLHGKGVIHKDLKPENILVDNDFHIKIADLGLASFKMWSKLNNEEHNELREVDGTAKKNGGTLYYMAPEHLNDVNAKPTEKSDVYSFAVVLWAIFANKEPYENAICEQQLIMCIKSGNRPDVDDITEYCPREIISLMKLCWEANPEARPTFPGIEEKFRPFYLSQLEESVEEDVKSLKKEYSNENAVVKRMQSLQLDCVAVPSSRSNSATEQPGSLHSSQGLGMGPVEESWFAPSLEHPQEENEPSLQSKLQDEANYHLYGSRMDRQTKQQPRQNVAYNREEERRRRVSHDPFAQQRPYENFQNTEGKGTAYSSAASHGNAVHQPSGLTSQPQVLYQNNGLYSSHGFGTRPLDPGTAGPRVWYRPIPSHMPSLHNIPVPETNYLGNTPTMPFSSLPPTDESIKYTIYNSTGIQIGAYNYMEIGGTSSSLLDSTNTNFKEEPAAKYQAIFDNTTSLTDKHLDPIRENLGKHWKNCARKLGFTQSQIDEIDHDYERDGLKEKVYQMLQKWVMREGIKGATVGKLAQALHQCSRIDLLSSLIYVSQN
UniProt Q01974, whole entry: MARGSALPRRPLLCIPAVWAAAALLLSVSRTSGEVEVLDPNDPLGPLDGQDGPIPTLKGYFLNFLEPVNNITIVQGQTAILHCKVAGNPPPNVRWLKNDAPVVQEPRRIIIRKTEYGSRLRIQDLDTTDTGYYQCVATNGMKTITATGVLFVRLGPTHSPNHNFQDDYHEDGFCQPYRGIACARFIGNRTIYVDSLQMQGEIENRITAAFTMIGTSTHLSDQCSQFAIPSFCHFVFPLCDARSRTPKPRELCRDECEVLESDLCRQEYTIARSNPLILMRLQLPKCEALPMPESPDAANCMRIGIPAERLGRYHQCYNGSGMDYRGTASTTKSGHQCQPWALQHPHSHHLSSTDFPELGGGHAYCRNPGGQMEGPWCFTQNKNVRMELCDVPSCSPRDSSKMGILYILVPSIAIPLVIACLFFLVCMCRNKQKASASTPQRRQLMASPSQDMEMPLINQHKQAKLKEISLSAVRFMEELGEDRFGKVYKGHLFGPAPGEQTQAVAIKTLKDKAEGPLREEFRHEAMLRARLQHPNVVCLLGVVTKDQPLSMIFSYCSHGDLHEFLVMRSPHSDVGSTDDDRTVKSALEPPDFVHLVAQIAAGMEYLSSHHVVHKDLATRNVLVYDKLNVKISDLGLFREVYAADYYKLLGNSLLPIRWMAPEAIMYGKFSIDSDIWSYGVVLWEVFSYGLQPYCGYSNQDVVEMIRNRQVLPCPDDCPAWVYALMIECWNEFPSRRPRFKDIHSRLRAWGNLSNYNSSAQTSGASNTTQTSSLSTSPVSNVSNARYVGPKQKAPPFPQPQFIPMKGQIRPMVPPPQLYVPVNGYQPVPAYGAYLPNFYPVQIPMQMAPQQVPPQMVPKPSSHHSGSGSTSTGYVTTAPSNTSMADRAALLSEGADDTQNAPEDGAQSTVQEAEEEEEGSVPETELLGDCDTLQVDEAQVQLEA
UniProt Q9Y6E0: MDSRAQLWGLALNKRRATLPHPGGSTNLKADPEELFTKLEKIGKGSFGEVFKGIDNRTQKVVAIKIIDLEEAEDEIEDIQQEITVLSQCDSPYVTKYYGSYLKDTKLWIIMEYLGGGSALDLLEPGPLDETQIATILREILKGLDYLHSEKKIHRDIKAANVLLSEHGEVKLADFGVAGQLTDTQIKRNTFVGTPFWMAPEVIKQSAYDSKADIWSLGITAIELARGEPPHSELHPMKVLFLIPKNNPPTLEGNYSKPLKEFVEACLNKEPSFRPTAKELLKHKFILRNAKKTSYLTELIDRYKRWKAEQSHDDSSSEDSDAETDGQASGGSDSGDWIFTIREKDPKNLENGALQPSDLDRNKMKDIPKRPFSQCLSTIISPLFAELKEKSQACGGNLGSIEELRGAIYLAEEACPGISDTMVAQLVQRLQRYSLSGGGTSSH
UniProt P42680: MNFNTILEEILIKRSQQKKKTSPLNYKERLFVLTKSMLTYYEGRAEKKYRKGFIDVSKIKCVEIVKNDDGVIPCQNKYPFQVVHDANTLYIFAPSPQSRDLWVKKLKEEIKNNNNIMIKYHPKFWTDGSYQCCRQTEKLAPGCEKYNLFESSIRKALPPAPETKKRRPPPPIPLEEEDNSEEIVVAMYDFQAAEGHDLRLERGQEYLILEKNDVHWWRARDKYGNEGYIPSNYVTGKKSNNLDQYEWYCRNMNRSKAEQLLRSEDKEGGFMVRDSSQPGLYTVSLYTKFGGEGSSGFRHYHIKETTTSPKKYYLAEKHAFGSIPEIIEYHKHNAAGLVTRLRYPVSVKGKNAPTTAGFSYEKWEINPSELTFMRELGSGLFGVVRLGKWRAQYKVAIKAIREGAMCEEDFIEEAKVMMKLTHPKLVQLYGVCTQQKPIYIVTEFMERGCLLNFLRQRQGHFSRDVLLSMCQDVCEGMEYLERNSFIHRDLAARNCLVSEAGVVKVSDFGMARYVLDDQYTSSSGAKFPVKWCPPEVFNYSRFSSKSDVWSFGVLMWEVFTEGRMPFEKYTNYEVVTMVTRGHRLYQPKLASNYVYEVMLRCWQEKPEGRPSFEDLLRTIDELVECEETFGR
UniProt P07947, whole entry, looked up: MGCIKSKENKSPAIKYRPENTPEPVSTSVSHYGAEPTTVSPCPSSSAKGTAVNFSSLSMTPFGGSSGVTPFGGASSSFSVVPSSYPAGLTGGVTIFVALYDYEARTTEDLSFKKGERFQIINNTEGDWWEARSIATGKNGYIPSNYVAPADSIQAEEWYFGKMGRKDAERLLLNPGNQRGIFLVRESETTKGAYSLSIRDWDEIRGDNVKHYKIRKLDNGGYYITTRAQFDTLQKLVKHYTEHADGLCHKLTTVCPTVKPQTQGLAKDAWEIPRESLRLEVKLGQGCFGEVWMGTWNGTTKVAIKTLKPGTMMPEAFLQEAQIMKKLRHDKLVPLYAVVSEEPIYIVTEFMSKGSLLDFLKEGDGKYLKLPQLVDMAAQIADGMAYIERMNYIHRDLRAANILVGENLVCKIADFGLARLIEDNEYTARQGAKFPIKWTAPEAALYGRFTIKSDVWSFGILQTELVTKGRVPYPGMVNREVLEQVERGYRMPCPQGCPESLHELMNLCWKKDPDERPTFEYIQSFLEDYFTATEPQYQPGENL
UniProt P43403: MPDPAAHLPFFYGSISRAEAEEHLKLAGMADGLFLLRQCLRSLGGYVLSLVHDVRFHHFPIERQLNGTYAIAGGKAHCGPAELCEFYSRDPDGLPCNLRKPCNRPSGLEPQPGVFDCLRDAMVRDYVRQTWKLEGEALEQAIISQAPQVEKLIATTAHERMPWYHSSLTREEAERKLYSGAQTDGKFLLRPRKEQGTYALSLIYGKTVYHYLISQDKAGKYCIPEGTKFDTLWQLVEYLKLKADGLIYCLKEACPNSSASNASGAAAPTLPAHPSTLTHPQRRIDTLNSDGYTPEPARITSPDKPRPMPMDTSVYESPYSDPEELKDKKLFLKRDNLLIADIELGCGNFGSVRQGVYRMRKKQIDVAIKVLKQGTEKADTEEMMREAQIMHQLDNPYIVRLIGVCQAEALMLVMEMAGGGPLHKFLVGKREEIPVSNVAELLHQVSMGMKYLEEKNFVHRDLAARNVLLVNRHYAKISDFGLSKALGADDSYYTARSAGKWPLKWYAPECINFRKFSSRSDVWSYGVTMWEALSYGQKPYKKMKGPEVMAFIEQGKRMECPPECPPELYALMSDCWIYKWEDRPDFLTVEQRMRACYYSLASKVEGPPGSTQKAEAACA
UniProt P11802: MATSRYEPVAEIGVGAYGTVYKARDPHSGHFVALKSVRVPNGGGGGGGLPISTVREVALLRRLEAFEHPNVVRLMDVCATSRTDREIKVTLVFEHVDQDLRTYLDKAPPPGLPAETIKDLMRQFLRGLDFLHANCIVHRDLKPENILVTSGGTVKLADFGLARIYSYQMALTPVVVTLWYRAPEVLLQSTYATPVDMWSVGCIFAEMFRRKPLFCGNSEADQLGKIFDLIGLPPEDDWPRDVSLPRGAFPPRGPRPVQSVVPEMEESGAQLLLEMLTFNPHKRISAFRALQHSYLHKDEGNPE

What was measured:
Settings in all cases: K562, 2-18 h
[1] = biological target: RET (UniProt P07949); experiment: kinase-Nluc reporter destabilization hit call (1 = scored as downregulated) (binary); higher = compound decreases kinase abundance
[2] = biological target: RET_M918T (clone: RET_mut) (UniProt P07949); experiment: as above
[3] = biological target: RIOK1 (UniProt Q9BRS2); experiment: as above
[4] = biological target: RIPK1 (UniProt Q13546); experiment: as above
[5] = biological target: RIPK2 (UniProt O43353); experiment: as above
[6] = biological target: ROR2 (UniProt Q01974); experiment: as above
[7] = biological target: RPS6KA1 (UniProt Q15418); experiment: as above
[8] = biological target: SPHK1 (UniProt Q9NYA1); experiment: as above
[9] = biological target: SRC (UniProt P12931); experiment: as above
[10] = biological target: STK24 (UniProt Q9Y6E0); experiment: as above
[11] = biological target: STK38 (UniProt Q15208); experiment: as above
[12] = biological target: SYK (UniProt P43405); experiment: as above
[13] = biological target: TEC (UniProt P42680); experiment: as above
[14] = biological target: TYK2 (UniProt P29597); experiment: as above
[15] = biological target: ULK3 (UniProt Q6PHR2); experiment: as above
[16] = biological target: YES1 (UniProt P07947); experiment: as above
[17] = biological target: ZAK (UniProt Q9NYL2); experiment: as above
[18] = biological target: ZAP70 (UniProt P43403); experiment: as above
[19] = biological target: CDK4 (UniProt P11802); experiment: number of time points (of 4; 2 h point missing) at which kinase-Nluc abundance scored as decreased, DMSO-normalised (count); higher = more persistent destabilization
[20] = biological target: CDK7 (UniProt P50613); experiment: as above

| Compound | kinase-Nluc reporter destabilization hit call ([1]; 2.5 µM) | kinase-Nluc reporter destabilization hit call ([2]; 2.5 µM) | kinase-Nluc reporter destabilization hit call ([3]; 2.5 µM) | kinase-Nluc reporter destabilization hit call ([4]; 2.5 µM) | kinase-Nluc reporter destabilization hit call ([5]; 2.5 µM) | kinase-Nluc reporter destabilization hit call ([6]; 2.5 µM) | kinase-Nluc reporter destabilization hit call ([7]; 2.5 µM) | kinase-Nluc reporter destabilization hit call ([8]; 2.5 µM) | kinase-Nluc reporter destabilization hit call ([9]; 2.5 µM) | kinase-Nluc reporter destabilization hit call ([10]; 2.5 µM) | kinase-Nluc reporter destabilization hit call ([11]; 2.5 µM) | kinase-Nluc reporter destabilization hit call ([12]; 2.5 µM) | kinase-Nluc reporter destabilization hit call ([13]; 2.5 µM) | kinase-Nluc reporter destabilization hit call ([14]; 2.5 µM) | kinase-Nluc reporter destabilization hit call ([15]; 2.5 µM) | kinase-Nluc reporter destabilization hit call ([16]; 2.5 µM) | kinase-Nluc reporter destabilization hit call ([17]; 2.5 µM) | kinase-Nluc reporter destabilization hit call ([18]; 2.5 µM) | number of time points ([19]; 2.5 µM) | number of time points ([20]; 2.5 µM) | kinase-Nluc reporter destabilization hit call ([1]; 10 µM) | kinase-Nluc reporter destabilization hit call ([2]; 10 µM) | kinase-Nluc reporter destabilization hit call ([3]; 10 µM) | kinase-Nluc reporter destabilization hit call ([4]; 10 µM) | kinase-Nluc reporter destabilization hit call ([5]; 10 µM) | kinase-Nluc reporter destabilization hit call ([6]; 10 µM) | kinase-Nluc reporter destabilization hit call ([7]; 10 µM) | kinase-Nluc reporter destabilization hit call ([8]; 10 µM) | kinase-Nluc reporter destabilization hit call ([9]; 10 µM) | kinase-Nluc reporter destabilization hit call ([10]; 10 µM) | kinase-Nluc reporter destabilization hit call ([11]; 10 µM) | kinase-Nluc reporter destabilization hit call ([12]; 10 µM) | kinase-Nluc reporter destabilization hit call ([13]; 10 µM) | kinase-Nluc reporter destabilization hit call ([14]; 10 µM) | kinase-Nluc reporter destabilization hit call ([15]; 10 µM) | kinase-Nluc reporter destabilization hit call ([16]; 10 µM) | kinase-Nluc reporter destabilization hit call ([17]; 10 µM) | kinase-Nluc reporter destabilization hit call ([18]; 10 µM) | number of time points ([19]; 10 µM) | number of time points ([20]; 10 µM) |
| --- | --- | --- | --- | --- | --- | --- | --- | --- | --- | --- | --- | --- | --- | --- | --- | --- | --- | --- | --- | --- | --- | --- | --- | --- | --- | --- | --- | --- | --- | --- | --- | --- | --- | --- | --- | --- | --- | --- | --- | --- |
| c1cc(-c2cnn3cc(-c4ccc(OCCN5CCCCC5)cc4)cnc23)ccn1 [Dorsomorphin] | inactive: 0 | inactive: 0 | inactive: 0 | inactive: 0 | inactive: 0 | inactive: 0 | inactive: 0 | inactive: 0 | inactive: 0 | inactive: 0 | inactive: 0 | inactive: 0 | inactive: 0 | inactive: 0 | inactive: 0 | inactive: 0 | inactive: 0 | inactive: 0 | 0 | 0 | – | – | – | – | – | – | – | – | – | – | – | – | – | – | – | – | – | – | – | – |
| COc1cc2c(Oc3ccc4[nH]c(C)cc4c3F)ncnc2cc1OCCCN1CCCC1 [Cediranib (maleate)] | inactive: 0 | inactive: 0 | inactive: 0 | inactive: 0 | inactive: 0 | inactive: 0 | inactive: 0 | inactive: 0 | inactive: 0 | inactive: 0 | inactive: 0 | inactive: 0 | inactive: 0 | inactive: 0 | inactive: 0 | inactive: 0 | inactive: 0 | inactive: 0 | 0 | 0 | – | – | – | – | – | – | – | – | – | – | – | – | – | – | – | – | – | – | – | – |
| N=C(N)NC(=O)c1nc(Cl)c(N)nc1N [Amiloride hydrochloride dihydrate] | – | – | – | – | – | – | – | – | – | – | – | – | – | – | – | – | – | – | – | – | inactive: 0 | inactive: 0 | inactive: 0 | inactive: 0 | inactive: 0 | inactive: 0 | inactive: 0 | inactive: 0 | inactive: 0 | inactive: 0 | inactive: 0 | inactive: 0 | inactive: 0 | inactive: 0 | inactive: 0 | inactive: 0 | inactive: 0 | inactive: 0 | 0 | 0 |
| C#Cc1cccc(Nc2ncnc3cc4c(cc23)OCCOCCOCCO4)c1 [Icotinib (Hydrochloride)] | – | – | – | – | – | – | – | – | – | – | – | – | – | – | – | – | – | – | – | – | inactive: 0 | inactive: 0 | inactive: 0 | inactive: 0 | inactive: 0 | inactive: 0 | inactive: 0 | inactive: 0 | inactive: 0 | inactive: 0 | inactive: 0 | inactive: 0 | inactive: 0 | inactive: 0 | inactive: 0 | inactive: 0 | inactive: 0 | inactive: 0 | 0 | 0 |
| CC(C)Oc1ccc(-c2nn([C@@H](C)c3oc4ccc(F)cc4c(=O)c3-c3cccc(F)c3)c3ncnc(N)c23)cc1F [Umbralisib] | inactive: 0 | inactive: 0 | inactive: 0 | inactive: 0 | inactive: 0 | inactive: 0 | inactive: 0 | inactive: 0 | inactive: 0 | inactive: 0 | inactive: 0 | inactive: 0 | inactive: 0 | inactive: 0 | inactive: 0 | inactive: 0 | inactive: 0 | inactive: 0 | 0 | 0 | – | – | – | – | – | – | – | – | – | – | – | – | – | – | – | – | – | – | – | – |
| C=CC(=O)Nc1cc(Nc2ncc(C(=O)OC(C)C)c(-c3cn(C)c4ccccc34)n2)c(OC)cc1N(C)CCN(C)C [Mobocertinib (succinate)] | – | – | – | – | – | – | – | – | – | – | – | – | – | – | – | – | – | – | – | – | inactive: 0 | inactive: 0 | inactive: 0 | inactive: 0 | inactive: 0 | inactive: 0 | inactive: 0 | inactive: 0 | inactive: 0 | inactive: 0 | inactive: 0 | inactive: 0 | inactive: 0 | inactive: 0 | inactive: 0 | inactive: 0 | inactive: 0 | inactive: 0 | 0 | 0 |
| CCS(=O)(=O)N1CCN(c2ccc(Nc3ncc(C(N)=O)c(NC4CC4)n3)cc2)CC1 [Cerdulatinib] | – | – | – | – | – | – | – | – | – | – | – | – | – | – | – | – | – | – | – | – | inactive: 0 | inactive: 0 | inactive: 0 | inactive: 0 | inactive: 0 | inactive: 0 | inactive: 0 | inactive: 0 | inactive: 0 | inactive: 0 | inactive: 0 | inactive: 0 | inactive: 0 | inactive: 0 | inactive: 0 | inactive: 0 | inactive: 0 | inactive: 0 | 0 | 1 |
| COc1ccnc(C[S+]([O-])c2nc3cc(-n4cccc4)ccc3[nH]2)c1C (stereo not given) [Ilaprazole] | – | – | – | – | – | – | – | – | – | – | – | – | – | – | – | – | – | – | – | – | inactive: 0 | inactive: 0 | inactive: 0 | inactive: 0 | inactive: 0 | inactive: 0 | inactive: 0 | inactive: 0 | inactive: 0 | inactive: 0 | inactive: 0 | inactive: 0 | inactive: 0 | inactive: 0 | inactive: 0 | inactive: 0 | inactive: 0 | inactive: 0 | 0 | 0 |
| Clc1ccc(C2(c3ccc(-c4cn[nH]c4)cc3)CCNCC2)cc1 [AT7867 (dihydrochloride)] | inactive: 0 | inactive: 0 | inactive: 0 | inactive: 0 | inactive: 0 | inactive: 0 | inactive: 0 | inactive: 0 | inactive: 0 | inactive: 0 | inactive: 0 | inactive: 0 | inactive: 0 | inactive: 0 | inactive: 0 | inactive: 0 | inactive: 0 | inactive: 0 | 0 | 0 | – | – | – | – | – | – | – | – | – | – | – | – | – | – | – | – | – | – | – | – |

Individual results from the results shown.
In kinase-Nluc reporter destabilization hit call ([2]; 10 µM), N=C(N)NC(=O)c1nc(Cl)c(N)nc1N [Amiloride hydrochloride dihydrate] has inactive: 0
In kinase-Nluc reporter destabilization hit call ([8]; 2.5 µM), COc1cc2c(Oc3ccc4[nH]c(C)cc4c3F)ncnc2cc1OCCCN1CCCC1 [Cediranib (maleate)] has inactive: 0
